These are yes or no findings as the source states them, for the method shown. In cells and extracts the contact can be indirect. Some entries that bind do so weakly or less than the wild type.
Target: T1, endogenous TyrRS (human (endogenous in HEK293)) (UniProt P54577)
T1 sequence: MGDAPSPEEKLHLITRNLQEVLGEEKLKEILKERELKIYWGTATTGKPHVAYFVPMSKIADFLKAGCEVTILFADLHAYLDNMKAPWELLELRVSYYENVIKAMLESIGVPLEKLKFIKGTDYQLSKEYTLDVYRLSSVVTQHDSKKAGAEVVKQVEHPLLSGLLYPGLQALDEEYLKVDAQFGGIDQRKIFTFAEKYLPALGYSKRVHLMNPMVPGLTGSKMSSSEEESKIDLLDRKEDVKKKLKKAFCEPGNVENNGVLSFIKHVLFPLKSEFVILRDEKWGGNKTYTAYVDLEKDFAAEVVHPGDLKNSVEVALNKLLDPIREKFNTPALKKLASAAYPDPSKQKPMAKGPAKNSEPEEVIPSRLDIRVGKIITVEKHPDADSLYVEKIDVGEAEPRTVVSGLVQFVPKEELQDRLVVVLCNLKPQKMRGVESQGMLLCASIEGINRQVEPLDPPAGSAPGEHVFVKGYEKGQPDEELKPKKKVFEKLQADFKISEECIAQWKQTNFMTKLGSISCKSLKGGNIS
Assay: co-IP

Amino acid sequences for entries named in this document (tags omitted).
UniProt Q92769: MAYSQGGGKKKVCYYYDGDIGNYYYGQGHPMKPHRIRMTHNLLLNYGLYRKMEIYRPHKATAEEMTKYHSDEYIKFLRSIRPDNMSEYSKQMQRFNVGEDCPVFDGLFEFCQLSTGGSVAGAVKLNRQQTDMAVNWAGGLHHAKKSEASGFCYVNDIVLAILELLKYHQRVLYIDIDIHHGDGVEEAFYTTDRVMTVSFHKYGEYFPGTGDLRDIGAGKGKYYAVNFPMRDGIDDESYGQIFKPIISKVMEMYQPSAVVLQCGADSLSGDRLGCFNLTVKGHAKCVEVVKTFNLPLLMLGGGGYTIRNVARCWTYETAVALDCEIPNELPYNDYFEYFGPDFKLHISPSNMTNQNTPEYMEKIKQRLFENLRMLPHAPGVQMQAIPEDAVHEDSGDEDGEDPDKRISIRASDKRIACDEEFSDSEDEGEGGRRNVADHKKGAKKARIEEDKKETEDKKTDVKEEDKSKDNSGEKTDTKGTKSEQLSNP
UniProt Q14839: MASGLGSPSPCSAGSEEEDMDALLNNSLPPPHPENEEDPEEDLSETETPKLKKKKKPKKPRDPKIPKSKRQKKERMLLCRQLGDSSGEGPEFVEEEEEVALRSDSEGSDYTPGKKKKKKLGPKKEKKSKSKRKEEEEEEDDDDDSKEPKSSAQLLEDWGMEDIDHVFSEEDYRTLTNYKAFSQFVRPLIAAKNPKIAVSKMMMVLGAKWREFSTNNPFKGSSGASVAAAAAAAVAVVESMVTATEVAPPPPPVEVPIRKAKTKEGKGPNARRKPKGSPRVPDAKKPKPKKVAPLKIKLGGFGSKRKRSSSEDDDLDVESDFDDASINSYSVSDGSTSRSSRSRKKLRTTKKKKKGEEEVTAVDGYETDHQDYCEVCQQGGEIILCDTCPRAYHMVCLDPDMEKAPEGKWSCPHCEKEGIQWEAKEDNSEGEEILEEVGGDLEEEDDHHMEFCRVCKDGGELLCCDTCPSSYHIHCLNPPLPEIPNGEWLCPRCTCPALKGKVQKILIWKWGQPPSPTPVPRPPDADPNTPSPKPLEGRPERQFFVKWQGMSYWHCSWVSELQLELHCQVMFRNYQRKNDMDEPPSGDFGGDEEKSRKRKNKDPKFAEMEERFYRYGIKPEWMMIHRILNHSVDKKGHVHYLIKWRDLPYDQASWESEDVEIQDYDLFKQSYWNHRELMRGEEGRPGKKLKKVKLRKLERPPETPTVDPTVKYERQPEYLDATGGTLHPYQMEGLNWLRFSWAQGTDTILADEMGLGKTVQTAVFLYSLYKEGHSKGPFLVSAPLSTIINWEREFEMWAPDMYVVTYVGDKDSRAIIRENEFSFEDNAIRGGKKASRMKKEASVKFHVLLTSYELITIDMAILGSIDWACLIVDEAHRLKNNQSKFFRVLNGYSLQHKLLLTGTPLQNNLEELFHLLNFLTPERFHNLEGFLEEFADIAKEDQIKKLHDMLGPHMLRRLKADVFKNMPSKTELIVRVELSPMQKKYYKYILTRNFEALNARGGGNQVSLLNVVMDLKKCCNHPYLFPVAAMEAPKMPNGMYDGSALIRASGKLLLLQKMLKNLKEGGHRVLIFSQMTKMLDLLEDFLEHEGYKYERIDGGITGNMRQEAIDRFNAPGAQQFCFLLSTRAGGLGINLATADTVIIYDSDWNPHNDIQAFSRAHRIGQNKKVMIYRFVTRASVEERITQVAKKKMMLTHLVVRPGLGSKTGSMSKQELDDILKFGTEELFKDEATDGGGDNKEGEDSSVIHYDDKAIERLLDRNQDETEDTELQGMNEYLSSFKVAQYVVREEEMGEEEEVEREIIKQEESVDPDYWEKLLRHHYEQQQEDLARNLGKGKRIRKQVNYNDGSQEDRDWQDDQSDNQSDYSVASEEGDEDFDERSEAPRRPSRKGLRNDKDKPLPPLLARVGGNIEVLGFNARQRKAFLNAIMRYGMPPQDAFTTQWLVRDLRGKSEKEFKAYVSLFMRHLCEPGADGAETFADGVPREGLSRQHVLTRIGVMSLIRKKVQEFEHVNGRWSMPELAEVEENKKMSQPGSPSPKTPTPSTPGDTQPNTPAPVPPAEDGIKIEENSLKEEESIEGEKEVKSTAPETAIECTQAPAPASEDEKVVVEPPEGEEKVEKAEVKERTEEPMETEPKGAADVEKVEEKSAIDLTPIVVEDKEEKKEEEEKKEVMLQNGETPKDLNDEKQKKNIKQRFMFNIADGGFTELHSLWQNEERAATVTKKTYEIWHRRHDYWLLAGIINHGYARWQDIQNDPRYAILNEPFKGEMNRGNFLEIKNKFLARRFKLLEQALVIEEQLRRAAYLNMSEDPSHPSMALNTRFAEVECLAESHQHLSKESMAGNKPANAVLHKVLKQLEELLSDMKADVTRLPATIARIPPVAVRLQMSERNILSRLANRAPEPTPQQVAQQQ
UniProt Q13547: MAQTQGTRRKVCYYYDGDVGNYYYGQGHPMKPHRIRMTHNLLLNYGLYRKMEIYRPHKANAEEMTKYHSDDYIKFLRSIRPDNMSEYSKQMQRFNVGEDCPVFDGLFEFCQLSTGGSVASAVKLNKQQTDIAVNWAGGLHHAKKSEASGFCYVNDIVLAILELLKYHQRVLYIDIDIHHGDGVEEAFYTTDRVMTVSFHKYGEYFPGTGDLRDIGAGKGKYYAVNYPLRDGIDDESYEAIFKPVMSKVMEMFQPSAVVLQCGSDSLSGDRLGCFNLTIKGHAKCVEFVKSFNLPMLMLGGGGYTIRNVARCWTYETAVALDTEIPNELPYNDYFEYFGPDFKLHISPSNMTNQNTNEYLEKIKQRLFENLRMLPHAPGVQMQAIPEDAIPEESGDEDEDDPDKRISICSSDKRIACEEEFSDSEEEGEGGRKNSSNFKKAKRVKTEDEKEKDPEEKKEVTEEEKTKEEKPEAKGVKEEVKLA

| binding | Substance |
| --- | --- |
| binds | HDAC2 (from UniProt Q92769 1-488) (enzyme) |
| binds | CHD4 (from UniProt Q14839 1-1912) |
| binds | HDAC1 (from UniProt Q13547 1-482) (enzyme) |
